# Reference: PubChem BioAssay AID1671195 (Yale University, 2021)
# Assay: 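Genes whose knockdown alters LDL uptake in liver cancer cells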 (primary screen)
# Cell system: human Huh7 hepatoma cells
# Reagents: siRNA pool against human genes, 18 nM
# Duration: about 2 to 2.5 days of knockdown, then 8 h LDL uptake
# Treatment: DiI-labelled LDL at 30 µg/ml for 8 h, in lipoprotein-deficient serum medium
# Read-out: 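Fluorescent LDL signal imaged in cells, scaled to the plate median, robust z-score for each replicate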
# Scale: robust z-score: higher = more LDL uptake after knockdown
# Active means: 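a gene counts as active if at least two replicate z-scores exceed ±2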
# The whole screen tested about 22,000 reagents; below is a part drawn at random. In the full data, about 1,510 (6.9%) are marked active. 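Active includes knockdowns raising or lowering LDL uptake; positive z-scores mean more uptake, negative mean less.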 Reagent sequences are not shown.
gene symbol,"robust z-score, replicate 1","robust z-score, replicate 2","robust z-score, replicate 3",Call
LOC401054 (retired record),0.723,0.532,0.216,inactive
"LOC154761 (family with sequence similarity 115, member C pseudogene)",-0.255,0.0081,-0.111,inactive
PRAME (PRAME nuclear receptor transcriptional regulator),0.533,-1.18,0.503,inactive
POLR2A (RNA polymerase II subunit A),-0.247,-0.376,-0.415,inactive
ANP32E (acidic nuclear phosphoprotein 32 family member E),-0.607,-1.17,-0.766,inactive
NDST4 (N-deacetylase and N-sulfotransferase 4),0.142,-0.684,0.0686,inactive
NUP85 (nucleoporin 85),-0.266,-0.277,-0.398,inactive
SIRPB1 (signal regulatory protein beta 1),-1.39,-1.27,-1.28,inactive
ARHGAP12 (Rho GTPase activating protein 12),0.178,0.634,0.606,inactive
"ST6GAL2 (ST6 beta-galactoside alpha-2,6-sialyltransferase 2)",1.05,1.22,1.96,inactive
PRP4K (pre-mRNA processing factor kinase PRP4K),-1.33,-1.78,-1.02,inactive
FRA10AC1 (FRA10A associated CGG repeat 1),-0.8,-0.862,-1.31,inactive
"SPTBN2 (spectrin beta, non-erythrocytic 2)",-1.63,-2.33,-0.832,inactive
CEP131 (centrosomal protein 131),0.772,3.54,0.0991,inactive
LRRC61 (leucine rich repeat containing 61),0.165,0.681,0.412,inactive
RWDD1 (RWD domain containing 1),1.9,1.86,1.26,inactive
PCLO (piccolo presynaptic cytomatrix protein),0.464,-0.513,-0.16,inactive
"ACP2 (acid phosphatase 2, lysosomal)",1.75,2.44,2.23,active
LOC442373 (retired record),-0.539,-0.0943,0.383,inactive
NUP210 (nucleoporin 210),-0.147,-0.336,-0.228,inactive
CCDC61 (coiled-coil domain containing 61),-0.591,-0.338,-0.0884,inactive
MED21 (mediator complex subunit 21),-1,-1.16,-1.16,inactive
ZNF557 (zinc finger protein 557),0.263,0.15,-0.0702,inactive
DIO2 (iodothyronine deiodinase 2),0.121,-0.347,-0.389,inactive
KRT74 (keratin 74),-0.00831,-0.184,-0.956,inactive
NHSL1-AS1 (NHSL1 antisense RNA 1),-0.78,-0.964,-1.02,inactive
IVNS1ABP (influenza virus NS1A binding protein),0.0778,-0.635,1.57,inactive
LOC389899 (retired record),0.389,0.349,0.28,inactive
SPOCD1 (SPOC domain containing 1),-0.285,0.0374,-0.0677,inactive
PRPF18 (pre-mRNA processing factor 18),0.332,1.42,1.08,inactive
CCDC32 (coiled-coil domain containing 32),-0.334,-0.333,-0.797,inactive
SEC14L5 (SEC14 like lipid binding 5),0.828,2.23,-0.222,inactive
AKR1C8 (aldo-keto reductase family 1 member C8),-0.308,-0.0423,0.318,inactive
OSGIN2 (oxidative stress induced growth inhibitor family member 2),0.644,0.137,2.36,inactive
ZXDB (zinc finger X-linked duplicated B),-1.13,-0.965,-0.875,inactive
SLC12A7,-1.91,-1.81,-1.7,inactive
NPAS2 (neuronal PAS domain protein 2),0.228,0.244,-0.0276,inactive
TMEM43 (transmembrane protein 43),0.474,1.38,0.261,inactive
OR1L8 (olfactory receptor family 1 subfamily L member 8),0.511,0.518,-0.0827,inactive
DNAJC30 (DnaJ heat shock protein family (Hsp40) member C30),-1.02,-0.924,-1.37,inactive
TSSK6 (testis specific serine kinase 6),0.644,0.485,1.32,inactive
SHTN1 (shootin 1),-1.04,-0.804,-1.11,inactive
PIGW (phosphatidylinositol glycan anchor biosynthesis class W),0.776,0.858,0.732,inactive
S100A14 (S100 calcium binding protein A14),0.759,0.65,0.331,inactive
LOC387983 (retired record),0.398,-0.62,-0.383,inactive
GUK1 (guanylate kinase 1),1.25,-0.198,0.348,inactive
PLGLB2 (plasminogen like B2),3.78,3.09,2.84,active
CDK8 (cyclin dependent kinase 8),1.82,1.82,1.21,inactive
ZNRF2 (zinc and ring finger 2),-0.47,-0.454,-0.408,inactive
PUS3 (pseudouridine synthase 3),0.127,0.211,-0.386,inactive
ILF3-DT (ILF3 divergent transcript),-1.24,-1.46,-1.28,inactive
JCAD (junctional cadherin 5 associated),-0.469,-0.7,-0.691,inactive
MAGEB6B (MAGE family member B6B),0.0726,1.08,1.55,inactive
DOT1L (DOT1 like histone lysine methyltransferase),-0.562,-0.673,-0.418,inactive
DENND4B (DENN domain containing 4B),2.41,0.199,0.69,inactive
RHBDL1 (rhomboid like 1),-2.05,-1.75,-1.89,inactive
ARHGAP45 (Rho GTPase activating protein 45),0.644,-1.46,0.728,inactive
TIMM21 (translocase of inner mitochondrial membrane 21),-0.703,-2.14,-0.48,inactive
DENND2B (DENN domain containing 2B),-0.206,0.219,1.51,inactive
IMMT (inner membrane mitochondrial protein),-1.01,-0.148,-0.508,inactive
MNS1 (meiosis specific nuclear structural 1),1.06,-0.786,2.39,inactive
ACKR4 (atypical chemokine receptor 4),1.81,2.84,2.83,active
CYP2U1 (cytochrome P450 family 2 subfamily U member 1),-1.46,-1.25,-1.12,inactive
FARSA (phenylalanyl-tRNA synthetase subunit alpha),0.295,0.596,0.279,inactive
CCDC9B (coiled-coil domain containing 9B),1.13,1.1,0.19,inactive
KRT23 (keratin 23),-0.185,-0.295,0.293,inactive
TMEM220 (transmembrane protein 220),-0.805,-0.863,-1.21,inactive
MDM4 (MDM4 regulator of p53),1.2,1.37,0.734,inactive
C6orf141 (chromosome 6 open reading frame 141),-1.93,-0.799,-0.341,inactive
"HSD3BP2 (hydroxy-delta-5-steroid dehydrogenase, 3 beta, pseudogene 2)",-0.0194,-0.382,-0.156,inactive
TRAPPC6B (trafficking protein particle complex subunit 6B),-0.0278,-0.0584,-0.796,inactive
CNOT11 (CCR4-NOT transcription complex subunit 11),-0.547,-0.383,-0.57,inactive
KCNC1 (potassium voltage-gated channel subfamily C member 1),1.13,1.51,1.01,inactive
KIF14 (kinesin family member 14),-0.805,-0.0452,0.0959,inactive
"LAMTOR1 (late endosomal/lysosomal adaptor, MAPK and MTOR activator 1)",1.21,-0.221,-1.1,inactive
LOC441139 (retired record),1.01,1.16,1.02,inactive
ZNF646 (zinc finger protein 646),-1.67,-1.99,-1.93,inactive
LAMA5 (laminin subunit alpha 5),2.41,2.19,1.14,active
"KRAS (KRas proto-oncogene, GTPase)",0.00674,-0.478,-0.00875,inactive
ZNF577 (zinc finger protein 577),1.09,1.46,0.256,inactive
"ELOA3P (elongin A3, pseudogene)",0.717,0.265,0.0399,inactive
LINC00314 (long independently transcribed non-coding RNA 314),-3.34,-3.32,-3.22,active
RGMA (repulsive guidance molecule BMP co-receptor a),-0.944,-1.87,-1.59,inactive
LOC441107 (retired record),-0.0291,-0.814,-0.226,inactive
PTGES2 (prostaglandin E synthase 2),-0.124,0.678,-0.698,inactive
FAM81B (family with sequence similarity 81 member B),-0.706,-1.9,-0.475,inactive
LOC401131,-0.855,-1.18,-0.813,inactive

A portion of the results above:
gene symbol,"robust z-score, replicate 1","robust z-score, replicate 2","robust z-score, replicate 3",Call
LOC387983 (retired record),0.398,-0.62,-0.383,inactive
GUK1 (guanylate kinase 1),1.25,-0.198,0.348,inactive
PLGLB2 (plasminogen like B2),3.78,3.09,2.84,active
CDK8 (cyclin dependent kinase 8),1.82,1.82,1.21,inactive
ZNRF2 (zinc and ring finger 2),-0.47,-0.454,-0.408,inactive
PUS3 (pseudouridine synthase 3),0.127,0.211,-0.386,inactive
ILF3-DT (ILF3 divergent transcript),-1.24,-1.46,-1.28,inactive
JCAD (junctional cadherin 5 associated),-0.469,-0.7,-0.691,inactive
MAGEB6B (MAGE family member B6B),0.0726,1.08,1.55,inactive
